Results as given in paper PMC8089095.
These are yes or no findings as the source states them, for the method shown. For some of these results: Binding seen in cells or lysates may run through a third protein. Some results given as binding are weak or reduced against the parent protein; the word gives no strength. For some of these results: Tags and fused reporters may be left off the sequences shown.

By UniProt entry, the sequences of proteins in these tests, tags left out.
UniProt O43474: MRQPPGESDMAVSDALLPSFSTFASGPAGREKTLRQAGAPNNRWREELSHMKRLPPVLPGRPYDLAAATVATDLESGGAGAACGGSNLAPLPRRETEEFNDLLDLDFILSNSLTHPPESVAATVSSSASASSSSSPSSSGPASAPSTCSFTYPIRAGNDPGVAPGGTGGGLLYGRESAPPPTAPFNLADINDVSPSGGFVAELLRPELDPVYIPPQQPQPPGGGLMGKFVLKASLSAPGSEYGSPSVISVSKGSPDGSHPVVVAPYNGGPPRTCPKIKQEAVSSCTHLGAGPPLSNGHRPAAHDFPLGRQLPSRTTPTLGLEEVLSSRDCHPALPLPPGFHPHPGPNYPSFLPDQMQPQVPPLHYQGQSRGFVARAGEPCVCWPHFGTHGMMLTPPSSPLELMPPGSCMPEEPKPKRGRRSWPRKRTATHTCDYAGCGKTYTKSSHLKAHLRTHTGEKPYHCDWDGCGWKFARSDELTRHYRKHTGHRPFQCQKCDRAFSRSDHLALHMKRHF

Tests used:
[1] = biological target: T1, Flag-ITIH5 (inter-alpha-trypsin inhibitor heavy chain 5) (UniProt Q86UX2); assay: co-IP; Flag-ITIH5 and GFP-KLF4 cotransfected into 293T cells; lysates (1% NP40 lysis buffer) immunoprecipitated with anti-Flag or anti-GFP, protein A/G agarose, 4 °C
T1 sequence: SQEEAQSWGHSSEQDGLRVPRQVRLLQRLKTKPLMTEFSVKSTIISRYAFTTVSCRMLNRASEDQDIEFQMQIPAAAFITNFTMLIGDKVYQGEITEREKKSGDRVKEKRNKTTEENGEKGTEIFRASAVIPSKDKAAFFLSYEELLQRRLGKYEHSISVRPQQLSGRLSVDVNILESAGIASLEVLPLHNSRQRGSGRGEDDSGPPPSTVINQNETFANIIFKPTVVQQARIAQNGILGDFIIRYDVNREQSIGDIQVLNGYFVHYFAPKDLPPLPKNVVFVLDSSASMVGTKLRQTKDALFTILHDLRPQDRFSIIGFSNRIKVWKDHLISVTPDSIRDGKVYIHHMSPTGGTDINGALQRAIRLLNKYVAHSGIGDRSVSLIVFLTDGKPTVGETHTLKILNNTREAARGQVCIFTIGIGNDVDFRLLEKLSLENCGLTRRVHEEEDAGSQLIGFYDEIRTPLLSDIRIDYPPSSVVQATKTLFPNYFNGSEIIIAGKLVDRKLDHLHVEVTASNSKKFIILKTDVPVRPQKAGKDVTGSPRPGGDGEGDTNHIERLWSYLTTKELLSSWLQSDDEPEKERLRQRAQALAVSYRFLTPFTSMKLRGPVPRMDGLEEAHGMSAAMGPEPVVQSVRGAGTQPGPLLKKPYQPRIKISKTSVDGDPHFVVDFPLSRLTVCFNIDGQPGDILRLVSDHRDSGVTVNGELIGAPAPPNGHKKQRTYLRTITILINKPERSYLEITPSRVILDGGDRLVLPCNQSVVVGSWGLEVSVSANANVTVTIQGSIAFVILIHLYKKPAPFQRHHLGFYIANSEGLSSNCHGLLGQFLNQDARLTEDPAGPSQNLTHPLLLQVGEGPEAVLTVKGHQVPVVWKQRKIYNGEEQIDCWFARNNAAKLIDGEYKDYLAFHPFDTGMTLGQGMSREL

GST-KLF4 = GST-KLF4 (UniProt O43474); assay: pull-down; GST or GST-KLF4 bound to GST agarose beads incubated with Flag-ITIH5 purified from HEK293T cells, 6 h at 4 °C (legend: 12 h), washed four times with PBS, western blot with Flag antibody; both purified
[2] = biological target: GFP-KLF4 (Krüppel-like factor 4) (UniProt O43474); assay: co-IP; Flag-ITIH5 and GFP-KLF4 cotransfected into 293T cells; lysates (1% NP40 lysis buffer) immunoprecipitated with anti-Flag or anti-GFP, protein A/G agarose, 4 °C
[3] = biological target: KLF4, endogenous in Mel-RM and Mel-CV cells (human (endogenous in Mel-RM and Mel-CV)) (UniProt O43474); assay: co-IP; endogenous proteins; Mel-RM and Mel-CV lysates immunoprecipitated with control IgG or anti-KLF4

Molecule: GFP-KLF4 (Krüppel-like factor 4) (from UniProt O43474 1-513)
- binding [1]: binds

B1: Flag-ITIH5 (inter-alpha-trypsin inhibitor heavy chain 5) (protein, UniProt Q86UX2 17-942)
chain: SQEEAQSWGHSSEQDGLRVPRQVRLLQRLKTKPLMTEFSVKSTIISRYAFTTVSCRMLNRASEDQDIEFQMQIPAAAFITNFTMLIGDKVYQGEITEREKKSGDRVKEKRNKTTEENGEKGTEIFRASAVIPSKDKAAFFLSYEELLQRRLGKYEHSISVRPQQLSGRLSVDVNILESAGIASLEVLPLHNSRQRGSGRGEDDSGPPPSTVINQNETFANIIFKPTVVQQARIAQNGILGDFIIRYDVNREQSIGDIQVLNGYFVHYFAPKDLPPLPKNVVFVLDSSASMVGTKLRQTKDALFTILHDLRPQDRFSIIGFSNRIKVWKDHLISVTPDSIRDGKVYIHHMSPTGGTDINGALQRAIRLLNKYVAHSGIGDRSVSLIVFLTDGKPTVGETHTLKILNNTREAARGQVCIFTIGIGNDVDFRLLEKLSLENCGLTRRVHEEEDAGSQLIGFYDEIRTPLLSDIRIDYPPSSVVQATKTLFPNYFNGSEIIIAGKLVDRKLDHLHVEVTASNSKKFIILKTDVPVRPQKAGKDVTGSPRPGGDGEGDTNHIERLWSYLTTKELLSSWLQSDDEPEKERLRQRAQALAVSYRFLTPFTSMKLRGPVPRMDGLEEAHGMSAAMGPEPVVQSVRGAGTQPGPLLKKPYQPRIKISKTSVDGDPHFVVDFPLSRLTVCFNIDGQPGDILRLVSDHRDSGVTVNGELIGAPAPPNGHKKQRTYLRTITILINKPERSYLEITPSRVILDGGDRLVLPCNQSVVVGSWGLEVSVSANANVTVTIQGSIAFVILIHLYKKPAPFQRHHLGFYIANSEGLSSNCHGLLGQFLNQDARLTEDPAGPSQNLTHPLLLQVGEGPEAVLTVKGHQVPVVWKQRKIYNGEEQIDCWFARNNAAKLIDGEYKDYLAFHPFDTGMTLGQGMSREL
- binding (GST-KLF4): binds
- binding [2]: binds

B2: ITIH5, endogenous in Mel-RM and Mel-CV cells (protein, UniProt Q86UX2 17-942)
chain: SQEEAQSWGHSSEQDGLRVPRQVRLLQRLKTKPLMTEFSVKSTIISRYAFTTVSCRMLNRASEDQDIEFQMQIPAAAFITNFTMLIGDKVYQGEITEREKKSGDRVKEKRNKTTEENGEKGTEIFRASAVIPSKDKAAFFLSYEELLQRRLGKYEHSISVRPQQLSGRLSVDVNILESAGIASLEVLPLHNSRQRGSGRGEDDSGPPPSTVINQNETFANIIFKPTVVQQARIAQNGILGDFIIRYDVNREQSIGDIQVLNGYFVHYFAPKDLPPLPKNVVFVLDSSASMVGTKLRQTKDALFTILHDLRPQDRFSIIGFSNRIKVWKDHLISVTPDSIRDGKVYIHHMSPTGGTDINGALQRAIRLLNKYVAHSGIGDRSVSLIVFLTDGKPTVGETHTLKILNNTREAARGQVCIFTIGIGNDVDFRLLEKLSLENCGLTRRVHEEEDAGSQLIGFYDEIRTPLLSDIRIDYPPSSVVQATKTLFPNYFNGSEIIIAGKLVDRKLDHLHVEVTASNSKKFIILKTDVPVRPQKAGKDVTGSPRPGGDGEGDTNHIERLWSYLTTKELLSSWLQSDDEPEKERLRQRAQALAVSYRFLTPFTSMKLRGPVPRMDGLEEAHGMSAAMGPEPVVQSVRGAGTQPGPLLKKPYQPRIKISKTSVDGDPHFVVDFPLSRLTVCFNIDGQPGDILRLVSDHRDSGVTVNGELIGAPAPPNGHKKQRTYLRTITILINKPERSYLEITPSRVILDGGDRLVLPCNQSVVVGSWGLEVSVSANANVTVTIQGSIAFVILIHLYKKPAPFQRHHLGFYIANSEGLSSNCHGLLGQFLNQDARLTEDPAGPSQNLTHPLLLQVGEGPEAVLTVKGHQVPVVWKQRKIYNGEEQIDCWFARNNAAKLIDGEYKDYLAFHPFDTGMTLGQGMSREL
- binding [3]: binds
